Source: ChEMBL document CHEMBL3988442, “University of Dundee, Small-Polar-MMV Screening Library” (2021).

By UniProt entry, the sequences of proteins in these tests, tags left out.
UniProt E9BF75, entry or part of it: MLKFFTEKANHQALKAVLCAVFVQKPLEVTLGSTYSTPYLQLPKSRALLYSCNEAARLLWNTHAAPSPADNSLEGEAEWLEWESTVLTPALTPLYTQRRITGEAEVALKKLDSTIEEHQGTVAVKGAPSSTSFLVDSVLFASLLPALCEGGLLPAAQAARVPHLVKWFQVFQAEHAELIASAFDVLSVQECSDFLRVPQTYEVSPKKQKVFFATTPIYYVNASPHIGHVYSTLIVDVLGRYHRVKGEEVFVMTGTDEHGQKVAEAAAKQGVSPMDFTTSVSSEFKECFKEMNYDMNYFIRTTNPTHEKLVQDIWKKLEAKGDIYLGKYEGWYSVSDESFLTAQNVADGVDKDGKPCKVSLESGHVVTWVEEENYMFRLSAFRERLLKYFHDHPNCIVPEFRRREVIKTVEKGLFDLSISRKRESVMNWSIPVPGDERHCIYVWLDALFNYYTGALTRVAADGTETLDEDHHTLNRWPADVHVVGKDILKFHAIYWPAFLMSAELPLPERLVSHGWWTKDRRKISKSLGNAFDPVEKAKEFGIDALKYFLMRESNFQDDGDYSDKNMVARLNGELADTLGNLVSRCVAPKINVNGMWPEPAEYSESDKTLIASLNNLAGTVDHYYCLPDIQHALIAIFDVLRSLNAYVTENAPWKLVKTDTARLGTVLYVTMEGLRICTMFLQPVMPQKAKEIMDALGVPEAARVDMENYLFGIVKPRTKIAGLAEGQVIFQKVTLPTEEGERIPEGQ

A: 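Methionyl-tRNA synthetase (putative), Leishmania donovani (UniProt E9BF75). Primary screen of methionyl-tRNA synthetase; the read-out is not stated. The test concentration is not given. Values are per cent inhibition. Of about 68,000 compounds tested this way, about 24 (0.035%) reached 50% or more in at least one test.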
B: 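Assay on Mycobacterium tuberculosis, filed only as a heat shock assay from Cornell; the read-out is not stated. The concentration is filed as 10 mM, unlikely as a test dose, so the dose is not known. Higher reads as stronger inhibition (inferred: compounds with an IC50 in retests scored well above the rest). Of about 69,000 compounds tested this way, about 930 (1.4%) reached 50% or more in at least one test.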

Results are percentages, as filed. The controls that fix the scale are not given in the record; negative values are as filed. Compounds were drawn at random from those tested, without regard to their results. A dash means the value is not listed here; it may have been measured.

| SMILES | A | B |
|---|---|---|
| `Cc1noc(C2CCCN2C(=O)C2CCC2)n1` (stereo not drawn) | 6.824 | -5.294 |
| `Cc1ccc(-c2nnc(C3CCCN3S(=O)(=O)c3cnn(C)c3C)o2)s1` (stereo not drawn) | 14.33 | -4.453 |
| `CN(C)c1cc(C(=O)NCCc2n[nH]c(=O)[nH]2)ccn1` | 11.27 | 9.771 |
| `OC[C@H]1CC[C@]2(CC1)CN(Cc1ccccc1F)Cc1ccccc1O2` | 16.78 | - |
| `CC1(C)CNC(=O)c2nc(-c3nnn[nH]3)[nH]c2C1` | 12.98 | 8.81 |
| `CS(=O)(=O)Cc1cccc(C(=O)N2CCCC(n3cccn3)C2)c1` (stereo not drawn) | 6.748 | 16.53 |
| `Cn1cc(N2CC3(COCCN(Cc4nccs4)C3)OCC2=O)cn1.O=C(O)C(F)(F)F` (stereo not drawn) | - | -23.86 |
| `Cc1cc(C(=O)NCC(c2ccsc2)N(C)C)no1` (stereo not drawn) | 20.56 | -14.55 |
| `CC(CC(=O)Nc1ncn(CC(=O)NCc2ccccc2)n1)C1CC1` (stereo not drawn) | 18.77 | 7.472 |
| `CC(C)c1ccc(CNC(C)c2ccc(S(C)(=O)=O)cc2)cc1` (stereo not drawn) | 10.31 | -14.33 |
| `CCOCCCNC(=O)C(C)n1cc(Br)cn1` (stereo not drawn) | 18.11 | -8.144 |
| `CC(=O)Nc1nc(CS(=O)(=O)Cc2ccccc2)cs1` | 7.494 | -1.791 |
| `[H][C@]12CCC[C@@]1(COCC)CN(C(=O)COc1ccccc1OC)C2` | - | 9.412 |
| `O=C(c1cc(Cn2ccc3ccccc32)[nH]n1)N1CCC[C@H]1CO` | 2.452 | 3.08 |
| `O=C(O)C(F)(F)F.O=C(O)C(F)(F)F.[H][C@@]12CCCO[C@]1([H])[C@H](OCCCn1cccn1)CN2c1nnc(C)s1` | - | -30.17 |
| `Cl.Cl.Cl.OC(CN1CCN(Cc2cccnc2)CC1)c1cccs1` (stereo not drawn) | - | -11.22 |
| `Cc1cc(C(=O)N2CCOC[C@H](Oc3cccnc3)C2)c(C(F)(F)F)o1` | 6.044 | -15.35 |
| `Nc1cc(-c2cc[nH]n2)nc(N2CCCC2)n1` | 5.363 | 11.14 |
| `COC(=O)C(C)N(Cc1cc(C)on1)C1CC1` (stereo not drawn) | 6.529 | 8.477 |
| `c1ccc(-n2ccc(CN3CCCC3Cn3cncn3)n2)cc1` (stereo not drawn) | 5.682 | 6.611 |
| `COc1ncnc(N(C)C)c1NC(=O)c1cscc1C` | 4.396 | -7.276 |
| `COCCNC(=O)CCNc1ccc(Cl)cn1` | 13.92 | -4.009 |
| `O=C1CC(c2cccnc2)c2c(sc3c2CCCC3)N1` (stereo not drawn) | 19.47 | 6.497 |
| `Cc1cc(C(F)(F)F)nc(C2COCCN2S(C)(=O)=O)n1` (stereo not drawn) | 10.59 | -2.356 |
| `Cc1cccc(N2CCC3(CCCN(C(=O)c4cccnc4)C3)C2)n1` (stereo not drawn) | 0.625 | - |
| `CCc1ccc(CN2Cc3nccn3CC(Cn3cncn3)C2)o1` (stereo not drawn) | 19.63 | - |
| `Cc1cc(CN2CCC3(CC2)CC(Nc2ncccn2)CO3)nn1C.O=C(O)C(F)(F)F` (stereo not drawn) | - | -27.1 |
| `C[C@@H](NC(=O)c1cnccn1)c1c(-c2ccc(Cl)cc2)noc1C(=O)O.Cl` | - | -7.938 |
| `C=C(C)CN(CC)S(=O)(=O)c1c(F)cc(NC(C)=O)cc1F` | -6.143 | -13.22 |
| `CC(C)CCN1C[C@H]2C[C@H](C(=O)Nc3ccccc3)[C@@H](C1)O2` | 21.61 | - |
| `CCCSCC(=O)N1C[C@H]2CC[C@@H]1CN(Cc1cccnc1)C2` | 0.5333 | - |
| `COCCN(C)CCN1CC2(CCN(C3CCCNC3)CC2)OC1=O` (stereo not drawn) | 12.04 | 2.191 |
| `O=C(O)C(F)(F)F.O=C(O)C(F)(F)F.[H][C@@]12CCN(c3ccc(C)nn3)C[C@]1([H])[C@@H](CN(C)Cc1ccco1)OC2` | - | 7.252 |
| `CCC(C)c1csc(NC(=O)c2sc(-c3nnc[nH]3)nc2C)n1` (stereo not drawn) | 12.54 | 2.355 |
| `O=C(NCCC1CCCCO1)c1coc(COc2ccc(F)cc2)n1` (stereo not drawn) | 8.614 | 10.76 |
| `Cc1ccc(F)c(S(=O)(=O)N2CCCC2c2ccncc2)c1` (stereo not drawn) | 5.444 | 10.01 |
| `COCCN(C)CC(=O)N1CCCC2(CCC(=O)N(CC3CC3)C2)C1` (stereo not drawn) | 12.18 | -21.86 |
| `N#Cc1c2n(c3c(=O)[nH]cnc13)CCCC2` | 10.41 | -28.01 |
| `CCNC(=O)N(Cc1cccc(OC)c1)C1CCC(O)CC1` (stereo not drawn) | 9.574 | 25.57 |
| `CCCC(=O)N1CCOC2(COCCN(CC(=O)NC)C2)C1.O=C(O)C(F)(F)F` (stereo not drawn) | - | 7.506 |
| `O=c1ccc2c(n1CCN1CCCC1)CCN(c1ncccn1)CC2` | 6.011 | 6.523 |
| `Cc1cc(NCC(=O)N(C)C(C)c2cccs2)c(C(N)=O)cc1F` (stereo not drawn) | 14.78 | 13.88 |

For reference, 4 entries once more:

{"smiles": "CCCSCC(=O)N1C[C@H]2CC[C@@H]1CN(Cc1cccnc1)C2", "A": 0.5333}
{"smiles": "O=C(O)C(F)(F)F.O=C(O)C(F)(F)F.[H][C@@]12CCN(c3ccc(C)nn3)C[C@]1([H])[C@@H](CN(C)Cc1ccco1)OC2", "B": 7.252}
{"smiles": "Cc1cccc(N2CCC3(CCCN(C(=O)c4cccnc4)C3)C2)n1", "stereo": "stereo not drawn", "A": 0.625}
{"smiles": "CCCC(=O)N1CCOC2(COCCN(CC(=O)NC)C2)C1.O=C(O)C(F)(F)F", "stereo": "stereo not drawn", "B": 7.506}